Assay results reported in PMC7641331, “Ctf18-RFC and DNA Pol ϵ form a stable leading strand polymerase/clamp loader complex required for normal and perturbed DNA replication” (Nucleic Acids Research, 2019).
No constants are given. Whether binding was seen depends on the method and setting. A result given as binding can be weak or reduced; the word gives no strength. One block for each molecule: values may come before it.

Amino acid sequences for entries named in this document (tags omitted). A change or cut given only in a name is not applied to a line headed by its entry.
UniProt P49956: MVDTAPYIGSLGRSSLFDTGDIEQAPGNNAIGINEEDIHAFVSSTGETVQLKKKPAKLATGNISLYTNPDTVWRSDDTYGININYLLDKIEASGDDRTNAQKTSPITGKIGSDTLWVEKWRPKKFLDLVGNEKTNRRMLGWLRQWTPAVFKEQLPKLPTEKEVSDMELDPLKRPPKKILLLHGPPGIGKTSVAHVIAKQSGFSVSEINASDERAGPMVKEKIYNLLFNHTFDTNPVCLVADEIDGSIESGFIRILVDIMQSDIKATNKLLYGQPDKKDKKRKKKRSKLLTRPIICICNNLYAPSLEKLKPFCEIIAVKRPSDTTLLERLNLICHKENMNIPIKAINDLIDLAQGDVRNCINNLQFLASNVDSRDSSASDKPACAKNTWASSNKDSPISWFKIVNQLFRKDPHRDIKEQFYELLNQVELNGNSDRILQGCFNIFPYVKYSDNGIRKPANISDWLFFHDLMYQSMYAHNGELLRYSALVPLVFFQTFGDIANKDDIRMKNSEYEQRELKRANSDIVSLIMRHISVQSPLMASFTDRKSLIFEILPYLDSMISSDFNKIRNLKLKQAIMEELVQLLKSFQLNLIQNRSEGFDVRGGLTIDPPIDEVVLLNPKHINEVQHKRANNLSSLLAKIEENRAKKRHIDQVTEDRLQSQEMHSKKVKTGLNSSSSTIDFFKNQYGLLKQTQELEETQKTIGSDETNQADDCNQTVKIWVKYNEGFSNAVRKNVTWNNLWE

Key:
[1] = target: T1, Pol2CAT, the complete catalytic domain of Pol2 (residues 1–1192), exonuclease-deficient (D290A/E292A) (S. cerevisiae) (UniProt P21951); assay: native gel or EMSA; supershift of Pol2CAT-DNA: 50 nM P1P2, 125 nM Pol2CAT and 125, 250 and 500 nM Ctf18-1-8 variant; 25 mM HEPES pH 7.5, 60 mM KCl, 10% glycerol, 1 mM TCEP; 20 min on ice; 6% Tris-glycine gel at 4°C; both purified
T1 sequence: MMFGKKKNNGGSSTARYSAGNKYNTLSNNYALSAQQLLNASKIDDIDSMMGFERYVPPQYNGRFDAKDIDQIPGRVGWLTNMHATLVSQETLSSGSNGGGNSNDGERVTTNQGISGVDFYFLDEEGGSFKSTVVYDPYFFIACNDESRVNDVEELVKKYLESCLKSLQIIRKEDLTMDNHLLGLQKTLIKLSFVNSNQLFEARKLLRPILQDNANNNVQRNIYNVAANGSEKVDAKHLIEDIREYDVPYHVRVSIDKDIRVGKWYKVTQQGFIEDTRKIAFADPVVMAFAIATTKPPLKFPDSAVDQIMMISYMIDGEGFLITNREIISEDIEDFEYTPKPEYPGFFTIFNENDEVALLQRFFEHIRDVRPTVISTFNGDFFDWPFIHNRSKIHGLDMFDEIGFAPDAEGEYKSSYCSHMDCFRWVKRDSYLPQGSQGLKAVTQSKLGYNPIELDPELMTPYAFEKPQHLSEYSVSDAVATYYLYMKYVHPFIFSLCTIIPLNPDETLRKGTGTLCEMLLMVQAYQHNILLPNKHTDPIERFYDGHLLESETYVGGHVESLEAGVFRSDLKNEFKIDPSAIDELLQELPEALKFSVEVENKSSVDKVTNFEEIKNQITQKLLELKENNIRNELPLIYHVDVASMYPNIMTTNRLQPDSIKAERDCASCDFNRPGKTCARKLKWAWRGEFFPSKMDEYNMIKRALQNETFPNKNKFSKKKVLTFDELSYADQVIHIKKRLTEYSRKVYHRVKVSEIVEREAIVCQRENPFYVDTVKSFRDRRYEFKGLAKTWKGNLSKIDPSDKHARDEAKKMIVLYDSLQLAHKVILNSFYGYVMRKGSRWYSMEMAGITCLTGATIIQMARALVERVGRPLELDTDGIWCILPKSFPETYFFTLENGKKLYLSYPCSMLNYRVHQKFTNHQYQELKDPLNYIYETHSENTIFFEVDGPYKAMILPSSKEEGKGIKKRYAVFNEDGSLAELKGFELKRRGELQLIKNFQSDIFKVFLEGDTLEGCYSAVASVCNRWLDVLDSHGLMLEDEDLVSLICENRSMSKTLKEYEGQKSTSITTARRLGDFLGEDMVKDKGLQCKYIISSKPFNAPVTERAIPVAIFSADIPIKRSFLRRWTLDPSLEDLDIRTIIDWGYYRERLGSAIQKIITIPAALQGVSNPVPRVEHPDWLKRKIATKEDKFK

[2] = target: T1, Pol2CAT, the complete catalytic domain of Pol2 (residues 1–1192), exonuclease-deficient (D290A/E292A) (S. cerevisiae); assay: cryo-EM structure; 2 μM Ctf18-1-8, Pol2CAT and P1P2* DNA in 20 mM HEPES pH 7.5, 160 mM NaCl, 1 mM TCEP; GraFix sucrose gradient with 0.15% glutaraldehyde; only DNA-free classes refined (Class 1 4.2 Å, Class 2 5.8 Å); both purified
[3] = target: Ctf18 (C-terminus, chain of the recombinant Ctf18-1-8 module) (S. cerevisiae) (UniProt P49956); assay: as above
[4] = target: Pol2(1–528), truncated construct of the Pol ϵ catalytic domain (S. cerevisiae) (UniProt P21951); assay: crystal structure; Pol2(1–528) and Ctf18-1-8 mixed 1:1, purified by SEC, crystallised at 5 mg/ml in 0.2 M NaCl, 14% PEG 20 000, 0.1 M HEPES pH 7.0; new crystal form; both purified

- binding [1]: binds
Molecule: Ctf18-1-8 variant Dcc1-3A (Dcc1 K364A/R376A/R380A) (S. cerevisiae) (complex)

- binding [2]: binds
Molecule: Ctf18 (C-terminus, chain of the recombinant Ctf18-1-8 module) (from UniProt P49956) (domain or fragment)

- binding [3]: binds
B1: Ctf8 (chain of the recombinant Ctf18-1-8 module) (protein, UniProt P38877 1-133)
chain: MPSVDIDASQWQKLTQSREKQTTVITPLGMMMLEIQGELELPKDFASLARRDSPNEGRFSEQDGETLIRFGSLQIDGERATLFVGKKQRLLGKVTKLDVPMGIMHFNSKDNKVELVDVMKYKVIFKDRPLPIM

- binding [3]: binds
- binding [4]: binds
B2: Dcc1 (chain of the recombinant Ctf18-1-8 module) (natural protein, S. cerevisiae)
chain: MSINLHSAPEYDPSYKLIQLTPELLDIIQDPVQNHQLRFKSLDKDKSEVVLCSHDKTWVLKQRKHSNTVLLMREFVPEQPITFDETLLFGLSKPYMDVVGFAKTESEFETRETHGELNLNSVPIYNGELDFSDKIMKRSSTKVIGTLEELLENSPCSALEGISKWHKIGGSVKDGVLCILSQDFLFKALHVLLMSAMAESLDLQHLNVEDTHHAVGKDIEDEFNPYTREIIETVLNKFAVQEQEAENNTWRLRIPFIAQWYGIQALRKYVSGISMPIDEFLIKWKSLFPPFFPCDIDIDMLRGYHFKPTDKTVQYIAKSTLPMDPKERFKVLFRLQSQWDLEDIKPLIEELNSRGMKIDSFIMKYARRKRLGKKTVVTSR
notes: Dcc1, S. cerevisiae; The Dcc1 chain of m2, written alone for the pairs that touch in the structures; also called Dcc1WH3 (its last winged helix domain)
